Assay in all cases: two-hybrid
In experiment [1] the target is Glα-SNAP_(10856) (Giardia lamblia).
The target in experiment [2] is Glα-SNAP_(17224) (Giardia lamblia) (UniProt A8B9B7).
Experiment [3] deals with GlNSF_(114776) (Giardia lamblia (strain ATCC 50803/ WB clone C6)).
Experiment [4] deals with GlNSF_(112681) (Giardia lamblia (strain ATCC 50803/ WB clone C6)).

The chains behind the UniProt entries cited, without tags or fusion partners. Where a name states a change or a piece, a line headed by the entry shows the natural chain unless it says otherwise.
UniProt A0A644F2H1: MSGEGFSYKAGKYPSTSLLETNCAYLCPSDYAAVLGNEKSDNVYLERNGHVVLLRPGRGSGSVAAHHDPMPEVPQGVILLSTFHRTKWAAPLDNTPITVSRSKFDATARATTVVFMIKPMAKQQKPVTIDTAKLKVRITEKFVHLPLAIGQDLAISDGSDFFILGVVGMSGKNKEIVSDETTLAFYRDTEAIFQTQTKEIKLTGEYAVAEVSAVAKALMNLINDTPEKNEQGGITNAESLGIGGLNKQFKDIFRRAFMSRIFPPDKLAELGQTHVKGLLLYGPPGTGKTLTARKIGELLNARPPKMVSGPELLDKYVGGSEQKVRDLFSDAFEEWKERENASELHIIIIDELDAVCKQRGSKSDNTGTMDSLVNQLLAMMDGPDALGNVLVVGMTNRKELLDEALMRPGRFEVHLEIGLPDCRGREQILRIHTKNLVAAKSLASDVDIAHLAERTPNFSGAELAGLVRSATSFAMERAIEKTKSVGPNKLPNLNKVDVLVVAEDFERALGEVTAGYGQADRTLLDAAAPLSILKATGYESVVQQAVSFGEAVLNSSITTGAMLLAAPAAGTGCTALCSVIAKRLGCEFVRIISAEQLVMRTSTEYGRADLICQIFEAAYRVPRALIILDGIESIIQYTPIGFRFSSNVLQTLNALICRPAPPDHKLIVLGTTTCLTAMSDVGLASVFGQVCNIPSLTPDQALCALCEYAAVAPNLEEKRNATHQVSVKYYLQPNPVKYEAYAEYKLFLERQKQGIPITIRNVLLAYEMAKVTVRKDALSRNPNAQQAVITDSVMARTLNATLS

No constants are given. Whether binding was seen depends on the method and setting. Binding can be weak; no strength is given.

For “GlNSF_(112681) (from UniProt A0A644F1R1)”, the figures for the binding result in experiment [1], in experiment [2] and in experiment [3] were “no binding”, “no binding” and “binds”, respectively.

As for “GlNSF_(114776) (from UniProt A0A644F2H1)”, the binding entry in experiment [1], in experiment [4] and in experiment [2] was “binds” throughout.

Source of the values: paper doi:10.1101/2024.08.20.608744.
